Assay: Foaming test, foam height
Format: physicochemical

Substance	Height (mL) after 5 seconds (Chicago Tap Water)	Height (mL) after 5 minutes (Chicago Tap Water)	Height (mL) after 5 seconds (w/Castor Oil) [mL]	Height (mL) after 5 minutes (w/Castor Oil) [mL]
linear alkylbenzene sulfonic acid, sodium salt [NaLAS]	500+ mL	500+ mL	200	200
C16 methyl ester sulfonate [MES C16]	220 mL	142.5 mL	157.5	135
